The source of these data is paper PMC7819943, “Rice protein-binding microarrays: a tool to detect cis-acting elements near promoter regions in rice”.

The other results are listed elsewhere or left out.

The target of the assay is T1, OsSMF1 (Oryza sativa, UniProt Q6ZLB0 1-436).
T1 sequence: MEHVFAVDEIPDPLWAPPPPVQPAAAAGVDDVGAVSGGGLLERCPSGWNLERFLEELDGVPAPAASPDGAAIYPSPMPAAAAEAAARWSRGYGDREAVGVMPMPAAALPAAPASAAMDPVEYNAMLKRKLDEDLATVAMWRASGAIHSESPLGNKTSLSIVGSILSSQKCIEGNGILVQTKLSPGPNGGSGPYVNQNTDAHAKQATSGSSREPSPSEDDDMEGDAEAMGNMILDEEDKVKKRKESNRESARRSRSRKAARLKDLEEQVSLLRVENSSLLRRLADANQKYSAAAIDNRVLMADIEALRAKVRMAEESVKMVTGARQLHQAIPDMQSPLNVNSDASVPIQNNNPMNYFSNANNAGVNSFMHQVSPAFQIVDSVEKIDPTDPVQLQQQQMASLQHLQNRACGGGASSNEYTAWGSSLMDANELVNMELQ
Nature of the assay: protein-binding microarray (RPBM); PBS, 2% BSA, 51.3 ng/ul salmon testes DNA, 50 uM zinc acetate, 200 nM TF, 25 C, 1 h; high values mean tight binding. The conditions noted are these: protein: recombinant; tags: N-terminal polyhistidine and DsRed monomer fusion (pET32a); chain copies: 2; label: CyDye5-dUTP incorporated in the synthesized complementary strand; 3' TTTTT single-stranded linker to array surface; dsDNA, one strand shown. In outline: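 Transcription factors, each fused N-terminally to a polyhistidine tag and DsRed, were expressed in E. coli BL21-CodonPlus and purified on Ni–NTA. A custom Agilent array was made double-stranded by primer extension with Cy5-dUTP and blocked with 2% BSA. It was incubated with 200 nM protein in PBS, 2% BSA, salmon testes DNA and 50 µM zinc acetate at 25 °C for 1 h, then washed. The binding signal is per-feature fluorescence intensity (arbitrary units) read on an Axon 4000B scanner.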
Turning to “GGATCAACGTGACATTAGATTTGAATCTAGCTAGCTGGAACGGAGTCACCTAGTGCAG”, the binding signal is 20100 fluorescence intensity (a.u.).

Consider “CCGTACTTATCTACTTATCATCTACGTGTACCGTGTTTATCGGAGTCACCTAGTGCAG”, for which the binding signal is 10200 fluorescence intensity (a.u.).

Regarding “GCGAAGGAAGGAAAAGAAAGCACCGTATGACGTGGAAGGACGGAGTCACCTAGTGCAG”, the binding signal is 11800 fluorescence intensity (a.u.).

Consider “GGAGTTAGTTCGGAGGTGATTATGGGGTGACGTATATTTTCGGAGTCACCTAGTGCAG”, for which the binding signal was 4370 fluorescence intensity (a.u.).

As for “GTAAGTACACGATCGATCACCTCGCCGCCGCCGCCGCCGCCGGAGTCACCTAGTGCAG”, the binding signal was 3830 fluorescence intensity (a.u.).

Take “ACGCTGCTCCATACAAGCGAGCGCGACTTTGAGGTCGCCACGGAGTCACCTAGTGCAG”: the binding signal is 3360 fluorescence intensity (a.u.).

For the sequence “ACTCCCGGTCCCATGTCACCGACACATGTACATCTCAGCACGGAGTCACCTAGTGCAG”, the binding signal is 4500 fluorescence intensity (a.u.).

For the sequence “TCGGCAGCGTTCGCGAGCGGATAAGGAGTGGCGGTGGTGGCGGAGTCACCTAGTGCAG”, the binding signal was 3340 fluorescence intensity (a.u.).

On to “TTCCTCGCCAACGTAAGCCAATAACATTGTGACGCAATCTCGGAGTCACCTAGTGCAG”, for which the binding signal is 5820 fluorescence intensity (a.u.).

Consider “CCTGCATCTCCATCATTTAGTGCGTGGAATGCTTCTCCAGCGGAGTCACCTAGTGCAG”, for which the binding signal was 3520 fluorescence intensity (a.u.).

For “CGCTCGCTAGTGGTGGAGGCAGGCAAGACACGTCACTAGCCGGAGTCACCTAGTGCAG”, the binding signal is 19400 fluorescence intensity (a.u.).

As to “TCTAGCATTGCCCAAATTCATATTCATTAACATATATATGCGGAGTCACCTAGTGCAG”, the binding signal is 3930 fluorescence intensity (a.u.).

As to “CGCGTGGAGCTCACGGATGGGCCACACGTGGACGGTCGAGCGGAGTCACCTAGTGCAG”, the binding signal was 6700 fluorescence intensity (a.u.).

In the case of “GGCAGATATTAGATAGAATGAAAGTTGGGGAATCAATCAGCGGAGTCACCTAGTGCAG”, the binding signal is 3300 fluorescence intensity (a.u.).

In the case of “TGAAGAGCCTTAGTCATAGTTGTACCGTAGTATTATTTGTCGGAGTCACCTAGTGCAG”, the binding signal was 3840 fluorescence intensity (a.u.).

In the case of “CCCACGCCGCGGGGCCACGCTTCGTTACGCCCGCTCATATCGGAGTCACCTAGTGCAG”, the binding signal is 4420 fluorescence intensity (a.u.).

For the sequence “GATGATGATGATGATGATGATGAGAAGGTGGTGCCGCCGCCGGAGTCACCTAGTGCAG”, the binding signal is 4280 fluorescence intensity (a.u.).

For the sequence “TCACCCTCTCCTATTCTCTCTCTTCGCCACGCTCTCATCCCGGAGTCACCTAGTGCAG”, the binding signal is 3830 fluorescence intensity (a.u.).

Turning to “ATTATACAGATTACGTGTAAATTGCGAGACGAATCTTTCACGGAGTCACCTAGTGCAG”, the binding signal was 4060 fluorescence intensity (a.u.).

“GAAACTCGTGGCTGCACTTATTTTAGAACGAAGGGAGTAGCGGAGTCACCTAGTGCAG”: the binding signal is 6360 fluorescence intensity (a.u.).

For “TTGCTATGGCCGCGAGGTTGCTTACTCATGGAGGAAAGCTCGGAGTCACCTAGTGCAG”, the binding signal was 4430 fluorescence intensity (a.u.).

Turning to “TTCTTCCGCGCCGACCTCTCCGTCCGCCCCGTCGACGAGTCGGAGTCACCTAGTGCAG”, the binding signal is 3490 fluorescence intensity (a.u.).

Turning to “AATCCTCCGCCATTCCCCGCATAGCGCCCCATGCCCCTACCGGAGTCACCTAGTGCAG”, the binding signal was 23300 fluorescence intensity (a.u.).

Turning to “AGGAAAAGGGGTTATACACGTGGTGATACTCACTTGACGGCGGAGTCACCTAGTGCAG”, the binding signal is 8040 fluorescence intensity (a.u.).

With “TGGCCCATCAGAGTCAGAGCCGCCGCCGACTCCAGATTCCCGGAGTCACCTAGTGCAG”, the binding signal was 3220 fluorescence intensity (a.u.).

Take “AGAGAGAGAGAGAGAGAGAGAGAGCTCAGGATCGACGAGACGGAGTCACCTAGTGCAG”: the binding signal was 16900 fluorescence intensity (a.u.).

For the sequence “ATCGGGCTCCGCCACTGGATGTGGCTGAAAATATTTGACGCGGAGTCACCTAGTGCAG”, the binding signal is 3600 fluorescence intensity (a.u.).

Turning to “ATATGGCCTTCGGTGGTATCCACGTAGAGCTTTACGTTAACGGAGTCACCTAGTGCAG”, the binding signal was 4810 fluorescence intensity (a.u.).

Turning to “TAGCAAGAACGCCTCGTTTCATAGCATATGCATTTGTCTGCGGAGTCACCTAGTGCAG”, the binding signal was 23200 fluorescence intensity (a.u.).

For “TCTCGCTAACGCCTATAGTCCATGACGTTGTCAGCCGTCCCGGAGTCACCTAGTGCAG”, the binding signal is 6100 fluorescence intensity (a.u.).

Regarding “CGATTTGATTCGCTGCTGACGTGGCACCCACCGCGTAAAACGGAGTCACCTAGTGCAG”, the binding signal is 5770 fluorescence intensity (a.u.).

Consider “TCTTTCTGCACTTTCTCTGAACGTGGATAAGACATAACCGCGGAGTCACCTAGTGCAG”, for which the binding signal was 8130 fluorescence intensity (a.u.).

As to “TGACGCGCCGGCCGGTCCAGCCTCCACGCGAGCAGCGGGTCGGAGTCACCTAGTGCAG”, the binding signal is 5000 fluorescence intensity (a.u.).

As for “CCTGGAACGCCTTCGTCTACATCATCGACGGCGAGGGCGTCGGAGTCACCTAGTGCAG”, the binding signal is 5970 fluorescence intensity (a.u.).

Regarding “GAGTGAGTGGTCACGTTACGTCACGTCACGAAGTGTGGGCCGGAGTCACCTAGTGCAG”, the binding signal is 11800 fluorescence intensity (a.u.).

As for “AGTAGAGAGATCTTGACAAAGTCATCGGTGATGAAGTCGACGGAGTCACCTAGTGCAG”, the binding signal was 3570 fluorescence intensity (a.u.).

Consider “CCTCTCTTATCCTCTCCTCCACGGCTCCACGTCTATTCTCCGGAGTCACCTAGTGCAG”, for which the binding signal is 4400 fluorescence intensity (a.u.).

Take “TTATGGGTGGAGTTGGCGGCAGCAACGAACCTCGTGTCATCGGAGTCACCTAGTGCAG”: the binding signal is 3850 fluorescence intensity (a.u.).

As for “TTGATATACCTGTCAGCATGCAGCATGCTATCTCAGTCTTCGGAGTCACCTAGTGCAG”, the binding signal is 4360 fluorescence intensity (a.u.).

In the case of “CGGCGATGGAGACGACGAGCTGCCGAGCGTGCGTGCGCGTCGGAGTCACCTAGTGCAG”, the binding signal was 3410 fluorescence intensity (a.u.).

As for “ACGGGATACTACCAAACAGAACCATCTGCCATTCCTGTTGCGGAGTCACCTAGTGCAG”, the binding signal was 3500 fluorescence intensity (a.u.).

“TTGATACTGTCTTAATAATTTTATCTTGATTGACACGTGGCGGAGTCACCTAGTGCAG”: the binding signal was 16800 fluorescence intensity (a.u.).
